Reference: PMC9452577
Results are given in words; binding and its absence hold for the method and conditions named. In cells and extracts the contact can be indirect. Binding can be weak; no strength is given.

Experiments:
[1] = biological target: GFP-RCAN1 (pCMV-EGFP-RCAN1.1 S); assay: co-IP; HK-2 cells transfected with GFP-RCAN1 (RCAN1 overexpression); 1 mg total lysate with anti-GFP and other antibodies overnight at 4 °C, protein A/G magnetic beads; IgG control; immunoblot for GFP, JNK and Mff
[2] = biological target: c-Jun N-terminal kinase (JNK), endogenous (human (endogenous in HK-2)); assay: co-IP; endogenous proteins in HK-2 cells under hypoxia/reoxygenation (HR) injury; 1 mg total lysate (1% Triton X-100, 150 mM NaCl, 60 mM octyl glucoside buffer) with anti-RCAN1, anti-JNK or anti-Mff overnight at 4 °C, protein A/G magnetic beads; IgG control; immunoblot

B1: Mitochondrial fission factor (Mff), endogenous (protein, UniProt Q9GZY8 1-342)
chain: MSKGTSSDTSLGRVSRAAFPSPTAAEMAEISRIQYEMEYTEGISQRMRVPEKLKVAPPNADLEQGFQEGVPNASVIMQVPERIVVAGNNEDVSFSRPADLDLIQSTPFKPLALKTPPRVLTLSERPLDFLDLERPPTTPQNEEIRAVGRLKRERSMSENAVRQNGQLVRNDSLWHRSDSAPRNKISRFQAPISAPEYTVTPSPQQARVCPPHMLPEDGANLSSARGILSLIQSSTRRAYQQILDVLDENRRPVLRGGSAAATSNPHHDNVRYGISNIDTTIEGTSDDLTVVDAASLRRQIIKLNRRLQLLEEENKERAKREMVMYSITVAFWLLNSWLWFRR
Q: Which binding [1] does the source give for B1 here?
A: binds

Q: And the binding [2]?
A: binds
